# Results deposited as PubChem BioAssay AID1259254 (NCATS, 2017).
# Test: 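Gene knock-downs that lead to re-replication, shown by excess G2 DNA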 (primary screen)
# Cell system: human HCT116 colorectal cancer cells
# Reagents: single siRNA against human genes
# Duration: 3 days
# Measurement: 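Nuclei stained with Hoechst and imaged; cell-cycle phase assigned by DNA content; G2 share scaled per plate, non-targeting siRNA 0%, GMNN siRNA 100%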
# Scale: G2 robust z-score and G2 cells, % of GMNN control: higher = more G2 cells, more excess DNA replication
# Active means: 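Active siRNAs have a G2 robust z of 5 or more median absolute deviations over the median, which in these data means about 38% or higher of GMNN control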
# The deposit covers about 59,000 reagents; this is an unselected part. About 1,550 of all reagents (2.6%) count as active. 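G2 share is only a proxy for re-replication; each gene was hit by three separate siRNAs, and active genes were retested.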 The numbers tell different reagents against one gene apart. Not all columns of the deposit are shown. The record does not give: the amount of reagent.
gene,reagent no.,G2 robust z-score,"G2 cells, % of GMNN control",outcome
SSBP1,1,-0.369,0.371,inactive
SSBP1,2,-0.52,-0.693,inactive
SSBP1,3,-1.31,-6.27,inactive
DDX47,1,0.525,6.66,inactive
DDX47,2,1.43,13,inactive
DDX47,3,0.267,4.85,inactive
RDH14,1,0.132,3.9,inactive
RDH14,2,0.651,7.55,inactive
RDH14,3,-0.759,-2.37,inactive
CEACAM6,1,4.72,36.2,inactive
CEACAM6,2,-0.845,-2.98,inactive
CEACAM6,3,7.37,54.8,active
USP29,1,-0.221,1.41,inactive
USP29,2,-0.203,1.54,inactive
USP29,3,-0.756,-2.35,inactive

Only “G2 cells, % of GMNN control” (3 entries from above):
DDX47 #3 = 4.85
RDH14 #1 = 3.9
RDH14 #2 = 7.55

More results follow.
gene,reagent no.,G2 robust z-score,"G2 cells, % of GMNN control",outcome
C1QL3,1,0.309,5.14,inactive
C1QL3,2,1.21,11.5,inactive
C1QL3,3,0.447,6.11,inactive
IFT122P3,1,-0.777,-2.5,inactive
IFT122P3,2,2.24,18.7,inactive
IFT122P3,3,-0.682,-1.83,inactive
ITPKB,1,0.401,5.79,inactive
ITPKB,2,-1.66,-8.7,inactive
ITPKB,3,-1.3,-6.19,inactive
ENDOU,1,0.0176,3.09,inactive
ENDOU,2,-1.26,-5.89,inactive
ENDOU,3,-0.141,1.98,inactive
DECR1,1,-0.935,-3.61,inactive
DECR1,2,1.04,10.3,inactive
DECR1,3,-0.117,2.15,inactive
